# Substitutions are numbered along the chain they refer to. The list shows a part of the results. For part of these data: At the low end of the ranking, values are background and their order means little.
# Assays:
# Details in all cases: yeast three-hybrid, YBZ-1, SC-Leu-His + 0.5 mM 3-AT, 4 days
# [1] = biological target: T1, PUM1 PUF domain R3-SRP C935S + Q939P (UniProt Q14671)
# T1 sequence: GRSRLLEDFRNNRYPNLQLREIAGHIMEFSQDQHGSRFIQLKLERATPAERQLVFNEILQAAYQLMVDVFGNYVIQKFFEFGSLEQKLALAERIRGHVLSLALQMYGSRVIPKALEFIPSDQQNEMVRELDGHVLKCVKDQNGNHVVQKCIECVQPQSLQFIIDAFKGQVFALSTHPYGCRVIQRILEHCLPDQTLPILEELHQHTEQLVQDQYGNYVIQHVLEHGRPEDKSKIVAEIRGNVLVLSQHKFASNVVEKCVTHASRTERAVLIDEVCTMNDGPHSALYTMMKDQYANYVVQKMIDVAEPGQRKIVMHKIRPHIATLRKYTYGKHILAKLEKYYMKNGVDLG
# [2] = biological target: T2, PUM1 PUF domain R3-SRS C935S + Q939S (Homo sapiens) (UniProt Q14671)
# T2 sequence: T1 sequence with P112S
# [3] = biological target: T3, PUM1 PUF domain R3-SRV C935S + Q939V (UniProt Q14671)
# T3 sequence: T1 sequence with P112V
# [4] = biological target: T4, PUM1 PUF domain R3-SSD C935S + R936S + Q939D (UniProt Q14671)
# T4 sequence: T1 sequence with R109S, P112D
# [5] = biological target: T5, PUM1 PUF domain R3-SSE C935S + R936S + Q939E (UniProt Q14671)
# T5 sequence: T1 sequence with R109S, P112E
# [6] = biological target: T6, PUM1 PUF domain R3-STD C935S + R936T + Q939D (UniProt Q14671)
# T6 sequence: T1 sequence with R109T, P112D
# [7] = biological target: T7, PUM1 PUF domain R3-SVE C935S + R936V + Q939E (UniProt Q14671)
# T7 sequence: T1 sequence with R109V, P112E
# [8] = biological target: T8, PUM1 PUF domain R3-SWL C935S + R936W + Q939L (UniProt Q14671)
# T8 sequence: T1 sequence with R109W, P112L
# [9] = biological target: T9, PUM1 PUF domain R3-TCE C935T + R936C + Q939E (UniProt Q14671)
# T9 sequence: T1 sequence with S108T, R109C, P112E
# [10] = biological target: T10, PUM1 PUF domain R3-THE R4-TFR C935T + R936H + Q939E + N971T + H972F + Q975R (UniProt Q14671)
# T10 sequence: T1 sequence with S108T, R109H, P112E, N144T, H145F, Q148R
# [11] = biological target: T11, PUM1 PUF domain R3-THE R4-TFR R7-NPG C935T + R936H + Q939E + N971T + H972F + Q975R + S1079N + N1080P + E1083G (UniProt Q14671)
# T11 sequence: T1 sequence with S108T, R109H, P112E, N144T, H145F, Q148R, S252N, N253P, E256G
# [12] = biological target: T12, PUM1 PUF domain R3-TQE C935T + R936Q + Q939E (UniProt Q14671)
# T12 sequence: T1 sequence with S108T, R109Q, P112E
# [13] = biological target: T13, PUM1 PUF domain R3-TRA C935T + Q939A (UniProt Q14671)
# T13 sequence: T1 sequence with S108T, P112A
# [14] = biological target: T14, PUM1 PUF domain R3-TRC C935T + Q939C (UniProt Q14671)
# T14 sequence: T1 sequence with S108T, P112C
# [15] = biological target: T15, PUM1 PUF domain R3-TRG C935T + Q939G (UniProt Q14671)
# T15 sequence: T1 sequence with S108T, P112G
# [16] = biological target: T16, PUM1 PUF domain R3-TRL C935T + Q939L (UniProt Q14671)
# T16 sequence: T1 sequence with S108T, P112L
# [17] = biological target: T17, PUM1 PUF domain R3-TRP C935T + Q939P (UniProt Q14671)
# T17 sequence: T1 sequence with S108T
# [18] = biological target: T18, PUM1 PUF domain R3-TRW C935T + Q939W (UniProt Q14671)
# T18 sequence: T1 sequence with S108T, P112W
# [19] = biological target: T19, PUM1 PUF domain R3-TSR C935T + R936S + Q939R (Homo sapiens) (UniProt Q14671)
# T19 sequence: T1 sequence with S108T, R109S, P112R
# [20] = biological target: T20, PUM1 PUF domain R3-TVE C935T + R936V + Q939E (UniProt Q14671)
# T20 sequence: T1 sequence with S108T, R109V, P112E
# [21] = biological target: T21, PUM1 PUF domain R3-VCE C935V + R936C + Q939E (UniProt Q14671)
# T21 sequence: T1 sequence with S108V, R109C, P112E
# [22] = biological target: T22, PUM1 PUF domain R3-VCK C935V + R936C + Q939K (Homo sapiens) (UniProt Q14671)
# T22 sequence: T1 sequence with S108V, R109C, P112K
# [23] = biological target: T23, PUM1 PUF domain R3-VFA C935V + R936F + Q939A (Homo sapiens) (UniProt Q14671)
# T23 sequence: T1 sequence with S108V, R109F, P112A
# [24] = biological target: T24, PUM1 PUF domain R3-VFF C935V + R936F + Q939F (Homo sapiens) (UniProt Q14671)
# T24 sequence: T1 sequence with S108V, R109F, P112F
# [25] = biological target: T25, PUM1 PUF domain R3-VFG C935V + R936F + Q939G (Homo sapiens) (UniProt Q14671)
# T25 sequence: T1 sequence with S108V, R109F, P112G
# [26] = biological target: T26, PUM1 PUF domain R3-VFW C935V + R936F + Q939W (UniProt Q14671)
# T26 sequence: T1 sequence with S108V, R109F, P112W
# [27] = biological target: T27, PUM1 PUF domain R3-VFY C935V + R936F + Q939Y (UniProt Q14671)
# T27 sequence: T1 sequence with S108V, R109F, P112Y
# [28] = biological target: T28, PUM1 PUF domain R3-VHP C935V + R936H + Q939P (UniProt Q14671)
# T28 sequence: T1 sequence with S108V, R109H
# [29] = biological target: T29, PUM1 PUF domain R3-VNV C935V + R936N + Q939V (UniProt Q14671)
# T29 sequence: T1 sequence with S108V, R109N, P112V
# [30] = biological target: T30, PUM1 PUF domain R3-VRA C935V + Q939A (UniProt Q14671)
# T30 sequence: T1 sequence with S108V, P112A
# [31] = biological target: T31, PUM1 PUF domain R3-VRC C935V + Q939C (UniProt Q14671)
# T31 sequence: T1 sequence with S108V, P112C
# [32] = biological target: T32, PUM1 PUF domain R3-VRF C935V + Q939F (UniProt Q14671)
# T32 sequence: T1 sequence with S108V, P112F
# [33] = biological target: T33, PUM1 PUF domain R3-VRG C935V + Q939G (UniProt Q14671)
# T33 sequence: T1 sequence with S108V, P112G
# [34] = biological target: T34, PUM1 PUF domain R3-VRH C935V + Q939H (UniProt Q14671)
# T34 sequence: T1 sequence with S108V, P112H
# [35] = biological target: T35, PUM1 PUF domain R3-VRI C935V + Q939I (UniProt Q14671)
# T35 sequence: T1 sequence with S108V, P112I
# [36] = biological target: T36, PUM1 PUF domain R3-VRL C935V + Q939L (UniProt Q14671)
# T36 sequence: T1 sequence with S108V, P112L
sequence,measurement,setting,value
GGCUAGAACUAGUGGAUCCCCCGGCGCCCGGCGGCUCGAGCCCGGGUAAGUGUAACUAGUCUGCAUGCCGCCGGGCGCCAUGCCUGCAGGUCGACUCUAGAAAACAUG,binding signal (log2 enrichment (interaction score)),[1],< -6.74
same,binding signal (log2 enrichment (interaction score)),[2],-3.03
same,binding signal (log2 enrichment (interaction score)),[3],-5.69
same,binding signal (log2 enrichment (interaction score)),[4],< -7.51
same,binding signal (log2 enrichment (interaction score)),[5],-6.68
same,binding signal (log2 enrichment (interaction score)),[6],< -8.72
same,binding signal (log2 enrichment (interaction score)),[7],< -8.14
same,binding signal (log2 enrichment (interaction score)),[8],< -7.16
same,binding signal (log2 enrichment (interaction score)),[9],-3.96
same,binding signal (log2 enrichment (interaction score)),[10],-6.76
same,binding signal (log2 enrichment (interaction score)),[11],-2.06
same,binding signal (log2 enrichment (interaction score)),[12],< -9.55
same,binding signal (log2 enrichment (interaction score)),[13],< -9.5
same,binding signal (log2 enrichment (interaction score)),[14],-6.02
same,binding signal (log2 enrichment (interaction score)),[15],-5.34
same,binding signal (log2 enrichment (interaction score)),[16],-4.17
same,binding signal (log2 enrichment (interaction score)),[17],-6.9
same,binding signal (log2 enrichment (interaction score)),[18],< -7.73
same,binding signal (log2 enrichment (interaction score)),[19],-0.35
same,binding signal (log2 enrichment (interaction score)),[20],< -7.83
same,binding signal (log2 enrichment (interaction score)),[21],< -7.6
same,binding signal (log2 enrichment (interaction score)),[22],-1.89
same,binding signal (log2 enrichment (interaction score)),[23],-0.53
same,binding signal (log2 enrichment (interaction score)),[24],0.04
same,binding signal (log2 enrichment (interaction score)),[25],0.34
same,binding signal (log2 enrichment (interaction score)),[26],< -7.78
same,binding signal (log2 enrichment (interaction score)),[27],< -7.98
same,binding signal (log2 enrichment (interaction score)),[28],< -8.09
same,binding signal (log2 enrichment (interaction score)),[29],< -7.65
same,binding signal (log2 enrichment (interaction score)),[30],< -10.1
same,binding signal (log2 enrichment (interaction score)),[31],< -8.92
same,binding signal (log2 enrichment (interaction score)),[32],< -8.52
same,binding signal (log2 enrichment (interaction score)),[33],-4.44
same,binding signal (log2 enrichment (interaction score)),[34],< -8.81
same,binding signal (log2 enrichment (interaction score)),[35],< -7.52
same,binding signal (log2 enrichment (interaction score)),[36],< -10.6

# 3 entries drawn at random from those above, as already listed:
sequence,measurement,setting,value
GGCUAGAACUAGUGGAUCCCCCGGCGCCCGGCGGCUCGAGCCCGGGUAAGUGUAACUAGUCUGCAUGCCGCCGGGCGCCAUGCCUGCAGGUCGACUCUAGAAAACAUG,binding signal (log2 enrichment (interaction score)),[4],< -7.51
same,binding signal (log2 enrichment (interaction score)),[31],< -8.92
same,binding signal (log2 enrichment (interaction score)),[15],-5.34

# Reference: article PMC8384837
